# According to the supplement of paper PMC4683952:
# Where a name gives a salt, the structure may show the parent alone. The whole screen tested about 1,200 compounds, of which about 50 (4%) showed activity. Rule as the data show it: all actives reach 1.3 or more but so do some inactives. The list shows a part of the results.
# Tested on: Lgr5 (MarsCy1-Lgr5-EGFP, U2OS)
# Test: cell-surface Lgr5 expression (SCi1 fluorescence, background-subtracted) relative to WT DMSO (fold of DMSO control); higher = more Lgr5 at the plasma membrane, active = hit call of the paper
# Conditions: U2OS MarsCy1-Lgr5-EGFP stable; treatment time: overnight; 16 µM; library: Johns Hopkins Clinical Compound Library
row,Compound,cell-surface Lgr5 expression
1,C#C[C@]1(O)CC[C@H]2[C@@H]3CCC4=CC(=O)CC[C@@H]4[C@H]3CC[C@@]21CC [Norgestrel D(-) (Levonorgestrel)],inactive: 1.29
2,CC(=O)O[C@H]1CC[C@@]2(C)C(=CC[C@H]3[C@@H]4CC[C@H](C(C)=O)[C@@]4(C)CC[C@@H]32)C1 [Pregnenolone acetate],inactive: 0.869
3,C[C@]1(Cn2ccnn2)[C@H](C(=O)O)N2C(=O)C[C@H]2S1(=O)=O [Tazobactam sodium salt],inactive: 1.09
4,CC(=O)OCC(=O)[C@@]1(OC(C)=O)[C@@H](C)C[C@H]2[C@@H]3C[C@H](F)C4=CC(=O)C=C[C@]4(C)[C@@]3(F)[C@@H](O)C[C@@]21C [Diflorasone diacetate],active: 1.67
5,CCN(CC)CCOCCOC(=O)C(CC)(CC)c1ccccc1 [Oxeladin citrate salt],active: 1.48
6,O=P([O-])(O)O.[Na+] [Sodium phosphate monobasic],inactive: 1.11
7,O=C([O-])/C=C/C(=O)[O-].[Fe+2] [Ferrous fumarate],inactive: 1.1
8,CCCOc1ccc(C(=O)OCCN(CC)CC)cc1N [Proparacaine],inactive: 1.22
9,C=CCCCCCCCCC(=O)[O-].C=CCCCCCCCCC(=O)[O-].[Zn+2] [Zinc undecylenate],inactive: 0.599
10,NC1CCN(c2nc3c(cc2F)c(=O)c(C(=O)O)cn3-c2ccc(F)cc2F)C1 (stereo not drawn) [Tosufloxacin],inactive: 0.98
11,CCNC(=O)/C=C/c1cccc(Br)c1 [Cinromide (trans-3-bromo-n-ethyl-cinnamide)],inactive: 1.15
12,COC(=O)Nc1nc2cc([S+]([O-])c3ccccc3)ccc2[nH]1 (stereo not drawn) [Oxfendazole],inactive: 1.18
13,N=C(N)NCCC[C@H](N)C(=O)O.N[C@@H](CCC(=O)O)C(=O)O [Arginine Glutamate (L-Arginine L-Glutamate salt)],inactive: 1.03
14,COc1ccccc1OCC(O)COC(N)=O (stereo not drawn) [Methocarbamol (Guaiacol Glyceryl Ether Carbamate)],inactive: 1.14
15,Nc1ccn([C@@H]2CS[C@H](CO)O2)c(=O)n1 [Lamivudine],inactive: 0.724
16,NC(=O)[C@@H]1CCCN1C(=O)[C@H](Cc1c[nH]cn1)NC(=O)[C@@H]1CCC(=O)N1,inactive: 0.977
17,O=C(c1ccccc1)c1ccc2n1CCC2C(=O)O (stereo not drawn) [Ketorolac],inactive: 1.11
18,CCOC(=O)[C@@](C)(N)Cc1ccc(O)c(O)c1 [Methyldopate hydrochloride],inactive: 1.29

# Single entries from the list.
# cell-surface Lgr5 expression with Nc1ccn([C@@H]2CS[C@H](CO)O2)c(=O)n1 [Lamivudine] reads inactive: 0.724
# cell-surface Lgr5 expression with COC(=O)Nc1nc2cc([S+]([O-])c3ccccc3)ccc2[nH]1 (stereo not drawn) [Oxfendazole] reads inactive: 1.18
